Source: paper PMC8280128, “Antioxidant and food additive BHA prevents TNF cytotoxicity by acting as a direct RIPK1 inhibitor” (Cell Death & Disease, 2021)
These are yes or no findings as the source states them, for the method shown. Binding seen in cells or lysates may run through a third protein. Some entries that bind do so weakly or less than the wild type.

Protein sequences, listed by entry. Tags and fused reporters are not part of them. Residues count along the entry.
UniProt P01375, residues 77-233: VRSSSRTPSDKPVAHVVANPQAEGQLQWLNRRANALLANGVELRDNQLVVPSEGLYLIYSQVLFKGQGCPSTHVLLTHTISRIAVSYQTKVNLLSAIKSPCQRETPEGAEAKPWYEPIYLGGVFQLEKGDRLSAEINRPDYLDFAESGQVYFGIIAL

Target: FLAG-tagged human TNF (human) (UniProt P01375)
Assay: co-IP; TNFR1 complex I IP: cells (MEFs; human HT-29 and BT549) stimulated with 1 µg/ml FLAG-hTNF, lysed in NP-40 lysis buffer (10% glycerol, 1% NP-40, 150 mM NaCl, 10 mM Tris-HCl pH 8), FLAG M2 affinity gel overnight, IPs treated with USP21, immunoblot; cells pretreated or not with IKKi, TBK1i, zVAD-fmk, BHA, other antioxidants, rotenone or NDGA; only the target purified

B1: TRADD (protein, UniProt Q3U0V2 1-310)
chain: MAAGQNGHEEWVGSAYLFLESAVDKVILSEAYTDPKKKVAIYKALQTALSESGDSSDVLQILKIHCSDPQLIVQLRFCGRVLCGRFLQAYREGALRTALQRCMAPALAQEALRLQLELRAGAEQLDSWLTDEERCLNYILAQKPDRLRDEELAELEDELCKLTCDCTGQGGAIQVASAGSKFPVSSPTEEKPLPAACQTFLFHGQLVVNRPLTLQDQQTFARSVGLKWRRVGRSLQRNCRALRDPALDSLAYEYERDGLYEQAFQLLRRFMQAEGRRATLQRLVEALEENELTSLAEDLLGQAEPDGGLA
B1 was tested, and the binding was “binds”.
